From paper PMC2386556
These are yes or no findings as the source states them, for the method shown. In cells and extracts the contact can be indirect. Some entries that bind do so weakly or less than the wild type. For some of these results: Tags and fused reporters may be left off the sequences shown.

The chains behind the UniProt entries cited, without tags or fusion partners. Residues count along the entry.
UniProt Q6WB98, residues 19-539: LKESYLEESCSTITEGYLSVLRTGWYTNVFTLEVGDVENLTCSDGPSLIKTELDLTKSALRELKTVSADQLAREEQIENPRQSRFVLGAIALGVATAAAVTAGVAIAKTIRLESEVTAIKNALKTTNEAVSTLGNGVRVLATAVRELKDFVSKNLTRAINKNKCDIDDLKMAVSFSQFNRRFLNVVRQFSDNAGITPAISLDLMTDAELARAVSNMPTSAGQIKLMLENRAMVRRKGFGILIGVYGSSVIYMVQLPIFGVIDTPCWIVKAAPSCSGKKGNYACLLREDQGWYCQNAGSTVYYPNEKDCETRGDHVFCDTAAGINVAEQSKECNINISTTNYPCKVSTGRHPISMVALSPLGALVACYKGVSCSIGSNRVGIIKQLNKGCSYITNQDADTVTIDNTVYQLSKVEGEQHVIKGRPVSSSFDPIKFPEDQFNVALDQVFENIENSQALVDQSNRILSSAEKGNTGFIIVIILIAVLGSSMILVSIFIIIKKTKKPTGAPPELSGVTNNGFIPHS

B1: Flag-tagged RIG-I (protein, UniProt O95786 1-925)
chain: MTTEQRRSLQAFQDYIRKTLDPTYILSYMAPWFREEEVQYIQAEKNNKGPMEAATLFLKFLLELQEEGWFRGFLDALDHAGYSGLYEAIESWDFKKIEKLEEYRLLLKRLQPEFKTRIIPTDIISDLSECLINQECEEILQICSTKGMMAGAEKLVECLLRSDKENWPKTLKLALEKERNKFSELWIVEKGIKDVETEDLEDKMETSDIQIFYQEDPECQNLSENSCPPSEVSDTNLYSPFKPRNYQLELALPAMKGKNTIICAPTGCGKTFVSLLICEHHLKKFPQGQKGKVVFFANQIPVYEQQKSVFSKYFERHGYRVTGISGATAENVPVEQIVENNDIIILTPQILVNNLKKGTIPSLSIFTLMIFDECHNTSKQHPYNMIMFNYLDQKLGGSSGPLPQVIGLTASVGVGDAKNTDEALDYICKLCASLDASVIATVKHNLEELEQVVYKPQKFFRKVESRISDKFKYIIAQLMRDTESLAKRICKDLENLSQIQNREFGTQKYEQWIVTVQKACMVFQMPDKDEESRICKALFLYTSHLRKYNDALIISEHARMKDALDYLKDFFSNVRAAGFDEIEQDLTQRFEEKLQELESVSRDPSNENPKLEDLCFILQEEYHLNPETITILFVKTRALVDALKNWIEGNPKLSFLKPGILTGRGKTNQNTGMTLPAQKCILDAFKASGDHNILIATSVADEGIDIAQCNLVILYEYVGNVIKMIQTRGRGRARGSKCFLLTSNAGVIEKEQINMYKEKMMNDSILRLQTWDEAVFREKILHIQTHEKFIRDSQEKPKPVPDKENKKLLCRKCKALACYTADVRVIEECHYTVLGDAFKECFVSRPHPKPKQFSSFEKRAKIFCARQNCSHDWGIHVKYKTFEIPVIKIESFVVEDIATGVQTLYSKWKDFHFEKIPFDPAEMSK
B2: V5-tagged hMPV glycoprotein G (protein, UniProt Q6WB94 1-219)
chain: MEVKVENIRAIDMLKARVKNRVARSKCFKNASLILIGITTLSIALNIYLIINYTIQKTSSESEHHTSSPPTESNKEASTISTDNPDINPNSQHPTQQSTENPTLNPAASVSPSETEPASTPDTTNRLSSVDRSTAQPSESRTKTKPTVHTRNNPSTASSTQSPPRATTKAIRRATTFRMSSTGKRPTTTSVQSDSSTTTQNHEETGSANPQASVSTMQN
B3: hMPV G protein expressed from rhMPV-WT infection (protein, UniProt Q6WB94 1-219)
chain: B2 chain
modifications: glycosylated (two major glycosylated forms around 90 and 50 kD)

Assays:
Flag-tagged RIG-I = target: T1, Flag-tagged RIG-I (UniProt O95786); assay: co-IP; 293 cells cotransfected with the Flag-tagged and V5-tagged expression plasmids and harvested after 30 h; lysate precleared with protein A/G-agarose; IP with anti-V5 or anti-Flag antibody (5 µg, 1 h, 4°C; beads overnight at 4°C); Western blot for the other tag
T1 sequence: B1 chain

[1] = target: T2, V5-tagged hMPV glycoprotein G (human metapneumovirus (Canadian isolate hMPV83 / CAN83)) (UniProt Q6WB94); assay: as above
T2 sequence: B2 chain

[2] = target: T3, endogenous RIG-I (human (endogenous in A549)) (UniProt O95786); assay: co-IP; A549 cells mock infected or infected with rhMPV-WT or rhMPV-ΔG, MOI 2, 24 h; lysate immunoprecipitated with anti-RIG-I antibody or isotype control; Western blot with polyclonal anti-hMPV antibody
T3 sequence: B1 chain

Row | Molecule | binding (Flag-tagged RIG-I) | further results
1 | V5-tagged hMPV F protein (from UniProt Q6WB98 19-539) | no binding | 
2 | B1 |  | binding [1]: binds
3 | B2 | binds | 
4 | B3 |  | binding [2]: binds
